PubChem BioAssay AID504744 | Drosophila RNAi Screening Center – 2011
In all, the deposit lists about 23,000 reagents; this is an unselected part of those that have a named target and a result. Over the whole deposit, 98 (0.43%) got an active call. 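Only hit calls are given; the phospho-dAkt signals, z-scores and hit direction were not deposited.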 Names joined by + are all predicted targets of the reagent.

Screen: 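Uncover factors, including feedback loops, that control dAkt activation in fly cells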 (primary screen)
Cells: Drosophila Kc167 cells
Reagents: long dsRNA against Drosophila genes, 250 ng dsRNA per well of a 384-well plate
Duration: 3 days of knock-down, then overnight serum-free starvation before stimulation
Conditions: bovine insulin at 387 nM for 10 minutes after 12 h without serum
Measurement: 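In-cell antibody fluorescence for phospho-dAkt in each well over DNA-dye signal, with log2 residuals expressed as z-scores adjusted for cell count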
Hit rule: 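Hit in the insulin screen when the two-replicate mean z-score is more extreme than plus or minus 2.5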

| Target gene | amplicon | activity call |
| --- | --- | --- |
| nej (nejire) | DRSC18006 | inactive |
| nej (nejire) | DRSC18801 | inactive |
| CG6683 | DRSC10694 | inactive |
| Gr68a (Gustatory receptor 68a) | DRSC10803 | inactive |
| BomS2 (Bomanin Short 2) | DRSC21488 | inactive |
| Ir92a (Ionotropic receptor 92a) | DRSC15111 | inactive |
| asrij | DRSC04175 | inactive |
| CG9259 | DRSC03174 | inactive |
| bs (blistered) | DRSC04676 | inactive |
| CG42812 + CG42811 | DRSC15367 | inactive |
| CG42812 + CG42811 | DRSC15368 | inactive |
| E(spl)m5-HLH (Enhancer of split m5, helix-loop-helix) | DRSC16695 | inactive |
| aph-1 (anterior pharynx defective 1) | DRSC00547 | inactive |
| dsx (doublesex) | DRSC12649 | inactive |
| dsx (doublesex) | DRSC16934 | inactive |
| dsx (doublesex) | DRSC21495 | inactive |
| CG13361 | DRSC17896 | inactive |
| Cyt-c-d (Cytochrome c distal) | DRSC03309 | inactive |
| CG31664 | DRSC22084 | inactive |
| RpL22-like (Ribosomal protein L22-like) | DRSC04582 | inactive |
| CG11970 | DRSC14157 | inactive |
| Wdr82 (WD repeat domain 82) | DRSC02595 | inactive |
| Wdr82 (WD repeat domain 82) | DRSC21723 | inactive |
| Obp83g (Odorant-binding protein 83g) | DRSC12269 | inactive |
| Scm (Sex comb on midleg) | DRSC16853 | inactive |
| CG4598 | DRSC02763 | inactive |
| Jasper (JIL-1 anchoring and stabilizing protein) | DRSC16352 | inactive |
| mew (multiple edematous wings) | DRSC18971 | inactive |
| mew (multiple edematous wings) | DRSC20352 | inactive |
| CG40378 (retired record) | DRSC20958 | inactive |
| CG40378 (retired record) | DRSC22174 | inactive |
| CG8366 | DRSC07153 | inactive |
| Or67a (Odorant receptor 67a) | DRSC11240 | inactive |
| CG14022 | DRSC02352 | inactive |
| vanin-like | DRSC17440 | inactive |
| CG15597 | DRSC12283 | inactive |
| CG42272 | DRSC08766 | inactive |
| CG42272 | DRSC22502 | inactive |
| capt (capulet) | DRSC00676 | inactive |
| capt (capulet) | DRSC00806 | inactive |
| Amyrel (Amylase related) | DRSC05920 | inactive |
| Prosalpha6T (Proteasome alpha6 subunit, Testis-specific) | DRSC02873 | inactive |
| Drep2 (DNA fragmentation factor-related protein 2) | DRSC07528 | inactive |
| CG9962 | DRSC00739 | inactive |
| CG3500 | DRSC04379 | inactive |
| CG13314 | DRSC09985 | inactive |
| CG13560 | DRSC04198 | inactive |
| CG14043 | DRSC02368 | inactive |
| CG7882 | DRSC04899 | inactive |
| Tab2 (TAK1-associated binding protein 2) | DRSC07481 | inactive |
| Ufsp1 (UFM1 specific peptidase 1) | DRSC04958 | inactive |
| sosie | DRSC14636 | inactive |
| sosie | DRSC21382 | inactive |
| Cul5 (Cullin 5) | DRSC14723 | inactive |
| SmB (Small ribonucleoprotein particle protein SmB) | DRSC03437 | inactive |
| RpL5 (Ribosomal protein L5) | DRSC03801 | inactive |
| Tfb1 (Transcription factor B1) | DRSC07082 | inactive |
| CG4053 | DRSC15538 | inactive |
| Fkbp59 (FK506-binding protein 59kD) | DRSC03323 | inactive |
| side-VIII (sidestep VIII) | DRSC05880 | inactive |
| side-VIII (sidestep VIII) | DRSC05883 | inactive |
| side-VIII (sidestep VIII) | DRSC06157 | inactive |
| Mst98Cb (Male-specific RNA 98Cb) | DRSC16750 | inactive |
| Mst98Cb (Male-specific RNA 98Cb) | DRSC22495 | inactive |
| CG7377 | DRSC10830 | inactive |
| Eh (Eclosion hormone) | DRSC16660 | inactive |
| mys (myospheroid) | DRSC18799 | inactive |
| CG5849 | DRSC15893 | inactive |
| Trf4 (TBP-related factor 4) | DRSC00729 | inactive |
| eIF3k (eukaryotic translation initiation factor 3 subunit k) | DRSC04056 | inactive |
| CG9717 | DRSC16543 | inactive |
| CG8100 | DRSC10961 | inactive |
| CG17562 | DRSC15243 | inactive |
| IleRS (Isoleucyl-tRNA synthetase) | DRSC11667 | inactive |
| l(3)80Fg (lethal (3) 80Fg) | DRSC21645 | inactive |
| l(3)80Fg (lethal (3) 80Fg) | DRSC22171 | inactive |
| Rgk2 (Rad, Gem/Kir family member 2) | DRSC06503 | inactive |
| Rgk2 (Rad, Gem/Kir family member 2) | DRSC21651 | inactive |
| Ube4A (Ubiquitination factor E4A) | DRSC02004 | inactive |
| Top1 (Topoisomerase 1) | DRSC20295 | inactive |
| CG7420 | DRSC00704 | inactive |
| P5cr (Pyrroline 5-carboyxlate reductase) | DRSC16782 | inactive |
| CG18294 | DRSC09891 | inactive |
| RASSF8 (Ras association domain family member 8) | DRSC15707 | inactive |
| CG14191 | DRSC19546 | inactive |
| CG8939 | DRSC20127 | inactive |
| bw (brown) | DRSC04005 | inactive |
| bw (brown) | DRSC04677 | inactive |
| CG14618 | DRSC20631 | inactive |
| exd (extradenticle) | DRSC20330 | inactive |
| CG13614 | DRSC14617 | inactive |
| cni (cornichon) | DRSC03512 | inactive |
| deltaCOP (Coat Protein (coatomer) delta) | DRSC18760 | inactive |
| Mnt | DRSC17894 | inactive |
| Mnt | DRSC18480 | inactive |
| CG7903 | DRSC16338 | inactive |
| Pbp95 (PSEA-binding protein 95kD) | DRSC15448 | inactive |
| CG12699 | DRSC06162 | inactive |
| CG10252 | DRSC14221 | inactive |
| CalpC (Calpain C) | DRSC19873 | inactive |
| fan (farinelli) | DRSC10930 | inactive |
| promL (prominin-like) | DRSC08733 | inactive |
| CG13676 | DRSC10035 | inactive |
| CG16984 | DRSC08500 | inactive |
| Hs2st (Heparan sulfate 2-O-sulfotransferase) | DRSC03348 | inactive |
| Su(fu) (Suppressor of fused) | DRSC16871 | inactive |
| Shmt (Serine hydroxymethyl transferase) | DRSC18264 | inactive |
| CG8646 | DRSC07230 | inactive |
| Scsalpha2 (Succinyl-coenzyme A synthetase alpha subunit 2) | DRSC16003 | inactive |
| frm (farmer) | DRSC09753 | inactive |
| Slu7 | DRSC14729 | inactive |
| CG2691 | DRSC19866 | inactive |
| CG13982 | DRSC02314 | inactive |
| CG15071 | DRSC06504 | inactive |
| galectin | DRSC00305 | inactive |
| CG1850 | DRSC06762 | inactive |
| CG31752 | DRSC22599 | inactive |
| CG1409 | DRSC17910 | inactive |
| Pex12 (Peroxin 12) | DRSC00622 | inactive |
| CG15034 | DRSC17966 | inactive |
| RnrS (Ribonucleoside diphosphate reductase small subunit) | DRSC07533 | inactive |
| Papst2 (PAPS transporter 2) | DRSC10924 | inactive |
| Tnpo-SR (Transportin-Serine/Arginine rich) | DRSC00546 | inactive |
| Rtel1 (Regulator of telomere elongation helicase 1) | DRSC18343 | inactive |
| Acsx2 (Acyl-CoA synthetase X2) | DRSC14308 | inactive |
| CG4928 | DRSC19342 | inactive |
| CG32052 | DRSC10966 | inactive |
| mtrm (matrimony) | DRSC10322 | inactive |
| Rgk1 (retired record) | DRSC07343 | inactive |
| Rgk1 (retired record) | DRSC07344 | inactive |
| CG15831 (retired record) | DRSC20816 | inactive |
| woc (without children) | DRSC15928 | inactive |
| CG31776 | DRSC00716 | inactive |
| grk (gurken) | DRSC03540 | inactive |
| CG15210 | DRSC19656 | inactive |
| cnk (connector enhancer of ksr) | DRSC07595 | inactive |
| SkpB (SKP1-related B) | DRSC07683 | inactive |
| Eaf6 (Esa1-associated factor 6) | DRSC09901 | inactive |
| Dbp73D (Dead box protein 73D) | DRSC11142 | inactive |
| Cdc27 (Cell division cycle 27) | DRSC11112 | inactive |
| CG18649 | DRSC10334 | inactive |
| Fbp1 (Fat body protein 1) | DRSC11166 | inactive |
| udt (undicht) | DRSC14214 | inactive |
| Cpr65Ec (Cuticular protein 65Ec) | DRSC11025 | inactive |
| Nse4 (Non-SMC element 4) | DRSC02239 | inactive |
| FANCI (Fanconi anemia complementation group I) | DRSC06416 | inactive |
| Rcd2 (Reduction in Cnn dots 2) | DRSC11756 | inactive |
| Surf6 (Surfeit 6) | DRSC15588 | inactive |
| Not10 (CCR4-NOT transcription complex subunit 10) | DRSC14129 | inactive |
| Syt4 (Synaptotagmin 4) | DRSC12606 | inactive |
| Bfc (Booster for Crq) | DRSC08623 | inactive |
| CG17486 | DRSC07752 | inactive |
| CG33137 | DRSC22131 | inactive |
| ssp2 (short spindle 2) | DRSC11052 | inactive |
| CG15347 | DRSC18031 | inactive |
| Cda9 (Chitin deacetylase-like 9) | DRSC06593 | inactive |
| Syt1 (Synaptotagmin 1) | DRSC00156 | inactive |
| Syt1 (Synaptotagmin 1) | DRSC00157 | inactive |
| Syt1 (Synaptotagmin 1) | DRSC00158 | inactive |
| Syt1 (Synaptotagmin 1) | DRSC00840 | inactive |
| Syt1 (Synaptotagmin 1) | DRSC22077 | inactive |

Already shown: 7 of the entries above.
| Target gene | amplicon | activity call |
| --- | --- | --- |
| CG7420 | DRSC00704 | inactive |
| P5cr (Pyrroline 5-carboyxlate reductase) | DRSC16782 | inactive |
| CG18294 | DRSC09891 | inactive |
| RASSF8 (Ras association domain family member 8) | DRSC15707 | inactive |
| CG14191 | DRSC19546 | inactive |
| CG8939 | DRSC20127 | inactive |
| bw (brown) | DRSC04005 | inactive |
